Results are given in words; binding and its absence hold for the method and conditions named. A result given as binding can be weak or reduced; the word gives no strength.
Legend:
[1] = biological target: glycosylated envelope (E) protein of West Nile virus, strain VR-1510 (West Nile virus); experiment: Western blot, lysate of West Nile virus-infected cells against mock cells
[2] = biological target: glycosylated envelope (E) protein of West Nile virus, strain VR-1510 (West Nile virus); experiment: cross-react test on flavivirus-infected cells (grade, Table 2)
[3] = biological target: glycosylated envelope (E) protein of Yellow fever virus, strain 17D (Yellow fever virus); experiment: as above

Measured: binding

B1: isolated monoclonal antibody of present disclosure (antibody, V domains shown)
VH: EVQLQQSGPELVKPGASVKISCKTSGYTFTEYTIHWVKQSHGKSLEYIGGINPNNGGTSYKQKFEGKATLTVDKSSSTAYMELRSLTSEDSAVYYCARRGLRPLFDYWGQGTTLTVSS
VL: DIVMTQSQKFMSTSVGDRVSVTCKASQNVGTNVAWYQQKPGQSPKVLIYSASSRYSGVPDRFTGSGSGTDFTLTISNVQSEDLAEYFCQQYNSYLTFGAGTKLELKR
binds: [1] | [2] | [3]
